Data as given in PubChem BioAssay AID504784 (Drosophila RNAi Screening Center, 2011)
Assay: 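Genome-wide knock-down for genes giving too much or too little stored lipid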 (primary screen). Cell system: Drosophila Kc167 embryonic cells. Reagent: long dsRNA against Drosophila genes, about 250 ng dsRNA per well. Time to read-out: 4 days. Treatment: cells fed 400 µM oleic acid bound to BSA. Measurement: 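Microscope images give a droplet-to-nucleus area ratio, taken as log and converted to a screen-wide B-score; higher values mean greater lipid storage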. Reading the numbers: droplet/nuclear area B-score: higher = more stored lipid (overstorage).
The screen tested about 17,000 reagents; below is a random part of those with a known target gene and a result. 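Each column is one replicate's B-score; the combined score over replicates was not deposited, so single values may mislead.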 Names joined by + are all predicted targets of the reagent. Further read-outs or replicates are left out here.

The first 2 records as a preview:
{"gene": "CG31404", "DRSC id": "DRSC15497", "droplet/nuclear area B-score, replicate 1": 0.0402}
{"gene": "Dhps", "DRSC id": "DRSC10948", "droplet/nuclear area B-score, replicate 1": -0.114}

Main list, repeating the preview:
{"gene": "CG31404", "DRSC id": "DRSC15497", "droplet/nuclear area B-score, replicate 1": 0.0402}
{"gene": "Dhps", "DRSC id": "DRSC10948", "droplet/nuclear area B-score, replicate 1": -0.114}
{"gene": "Muc26B", "DRSC id": "DRSC02322", "droplet/nuclear area B-score, replicate 1": 0.312}
{"gene": "gro", "DRSC id": "DRSC16962", "droplet/nuclear area B-score, replicate 1": 0.401}
{"gene": "HSPBAP1", "DRSC id": "DRSC14567", "droplet/nuclear area B-score, replicate 1": 0.294}
{"gene": "Ns1", "DRSC id": "DRSC15529", "droplet/nuclear area B-score, replicate 1": 0.0973}
{"gene": "Cpr47Ee", "DRSC id": "DRSC06343", "droplet/nuclear area B-score, replicate 1": 0.731}
{"gene": "Cpr47Ee", "DRSC id": "DRSC23164", "droplet/nuclear area B-score, replicate 1": -0.686}
{"gene": "eca", "DRSC id": "DRSC22290", "droplet/nuclear area B-score, replicate 1": -1}
{"gene": "CG7781", "DRSC id": "DRSC03068", "droplet/nuclear area B-score, replicate 1": -0.209}
{"gene": "sced", "DRSC id": "DRSC04990", "droplet/nuclear area B-score, replicate 1": -0.77}
{"gene": "CG8067", "DRSC id": "DRSC07065", "droplet/nuclear area B-score, replicate 1": -2.75}
{"gene": "Spred", "DRSC id": "DRSC05976", "droplet/nuclear area B-score, replicate 1": -1.03}
{"gene": "CG9410 + CG15908", "DRSC id": "DRSC04976", "droplet/nuclear area B-score, replicate 1": 2.32}
{"gene": "CG9410 + CG15908", "DRSC id": "DRSC05001", "droplet/nuclear area B-score, replicate 1": -0.382}
{"gene": "Cyp4ae1", "DRSC id": "DRSC18455", "droplet/nuclear area B-score, replicate 1": 0.853}
{"gene": "lectin-21Ca", "DRSC id": "DRSC00541", "droplet/nuclear area B-score, replicate 1": 2.16}
{"gene": "Nepl7", "DRSC id": "DRSC02495", "droplet/nuclear area B-score, replicate 1": -0.689}
{"gene": "CG33483", "DRSC id": "DRSC14019", "droplet/nuclear area B-score, replicate 1": 2.22}
{"gene": "CG13908 (retired record)", "DRSC id": "DRSC08378", "droplet/nuclear area B-score, replicate 1": -0.455}
{"gene": "Cpr78E", "DRSC id": "DRSC11807", "droplet/nuclear area B-score, replicate 1": 0.498}
{"gene": "Sas-4", "DRSC id": "DRSC12505", "droplet/nuclear area B-score, replicate 1": -1.93}
{"gene": "CG12123", "DRSC id": "DRSC17818", "droplet/nuclear area B-score, replicate 1": -1.4}
{"gene": "CG16704", "DRSC id": "DRSC00475", "droplet/nuclear area B-score, replicate 1": -0.807}
{"gene": "Ugt35A1", "DRSC id": "DRSC16892", "droplet/nuclear area B-score, replicate 1": -0.0591}
{"gene": "for", "DRSC id": "DRSC00195", "droplet/nuclear area B-score, replicate 1": -0.504}
{"gene": "for", "DRSC id": "DRSC00818", "droplet/nuclear area B-score, replicate 1": 0.263}
{"gene": "RpS6", "DRSC id": "DRSC18712", "droplet/nuclear area B-score, replicate 1": 4.45}
{"gene": "CG17738", "DRSC id": "DRSC15257", "droplet/nuclear area B-score, replicate 1": -0.00492}
{"gene": "CG16721", "DRSC id": "DRSC18113", "droplet/nuclear area B-score, replicate 1": 0.5}
{"gene": "CG10853", "DRSC id": "DRSC08164", "droplet/nuclear area B-score, replicate 1": -0.26}
{"gene": "CG17029", "DRSC id": "DRSC10240", "droplet/nuclear area B-score, replicate 1": 0.671}
{"gene": "TwdlU", "DRSC id": "DRSC12224", "droplet/nuclear area B-score, replicate 1": 0.402}
{"gene": "CG11597", "DRSC id": "DRSC09847", "droplet/nuclear area B-score, replicate 1": 0.11}
{"gene": "CG5089", "DRSC id": "DRSC06914", "droplet/nuclear area B-score, replicate 1": -2.34}
{"gene": "CG9691", "DRSC id": "DRSC18441", "droplet/nuclear area B-score, replicate 1": 0.422}
{"gene": "Spp", "DRSC id": "DRSC00328", "droplet/nuclear area B-score, replicate 1": 0.0218}
{"gene": "Gar1", "DRSC id": "DRSC04441", "droplet/nuclear area B-score, replicate 1": 0.0805}
{"gene": "Dscam1", "DRSC id": "DRSC07407", "droplet/nuclear area B-score, replicate 1": 0.547}
{"gene": "Dscam1", "DRSC id": "DRSC21562", "droplet/nuclear area B-score, replicate 1": 0.213}
{"gene": "Dscam1", "DRSC id": "DRSC22383", "droplet/nuclear area B-score, replicate 1": -0.836}
